Consider two molecules from paper PMC6859486.

Amino acid sequences for entries named in this document (tags omitted). Residues count along the entry.
UniProt Q8R035, residues 30-206: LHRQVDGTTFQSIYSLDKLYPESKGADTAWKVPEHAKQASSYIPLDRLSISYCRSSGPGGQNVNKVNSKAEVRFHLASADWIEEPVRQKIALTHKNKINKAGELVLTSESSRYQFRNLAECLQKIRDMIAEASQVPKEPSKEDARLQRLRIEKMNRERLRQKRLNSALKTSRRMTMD

These are yes or no findings as the source states them, for the method shown. In cells and extracts the contact can be indirect. Some binding calls cover weakened binding; strength is not graded here.

For this experiment, the target named is mL62-FLAG (mouse) (UniProt Q8R035). The experiment can be described thus: co-sedimentation; 10%-30% sucrose density gradient of digitonin lysates of liver, kidney and heart mitochondria of MitoRibo-Tag mice; 10 mM Tris-HCl pH 7.5, 100 mM KCl, 20 mM MgCl2; fractions analysed by western blot.

Consider bS16m (from UniProt Q9CPX7 35-135), for which the binding entry was “binds”.

B1: mL37 (protein, UniProt Q921S7 30-423)
chain: AYEWGVRSTRKPEPRPLDRVYEIPGLEPITYEGKKHFVPWLARPIFPPWERGWNDPRFHRAAPIHEQTLYKEEPCYIFHQRCRLLEGMKQALWLTKTKLIEGLPKKVLSLVDDPANHIENQEQRVLDIISHARLWHSTEDIPKRETYCPLIVDSLIQLCKSQILKHPSLARRTSAQNCTLATTWNRESLLLQVRGTSSTILSAKDPLPVIASREEVEATRSHVLETFYPISPTIDLQECHVYEVKDDTGFQEGYPYPHPHTLYFLEKANLRPQRFLPEQLRAKMLLFAFANALAQARLLYGNTAKVLEQPIVVQSVGTDGRVFQFLVLQLNTTDLASSEGVKNLVWTDSDQLLYRHFWCRPVIKKKVVVEPVGPVDFQPETFRKFLALYLHGVV
For the molecule B1, the binding result was “binds”.
